The target of this test is GST-NEDD8 (UniProt Q15843). Description: pull-down; GST-ubiquitin, GST-NEDD8 or GST alone on beads incubated with lysates of HEK293 cells expressing GFP fusions (20 h post-transfection); blot with anti-GFP; only the target purified.

Protein sequences, listed by entry. Tags and fused reporters are not part of them. Residues count along the entry.
UniProt Q15843, residues 1-76: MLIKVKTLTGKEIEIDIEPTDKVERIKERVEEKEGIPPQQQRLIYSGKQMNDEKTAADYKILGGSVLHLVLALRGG

No constants are given. Whether binding was seen depends on the method and setting. In cells and extracts the contact can be indirect. Some binding calls cover weakened binding; strength is not graded here. Sequences can lack the tags named with a protein.

These results are taken from publication PMC6681339.

B1: GFP-N4BP1 (amino acid fragment spanning residues 813–896 of N4BP1) (domain or fragment, UniProt O75113 813-896)
chain: TRIQGAPSSHWLPQQPHFPLLPALPSLQQNLPMPAQRSSAETNELREALLKIFPDSEQRLKIDQILVAHPYMKDLNALSAMVLD
B1: the binding result is reported as “binds weakly”.
